Results from the supplement of paper PMC4635364.
Counter-ions that a name gives are not always drawn. The list shows a part of the results. Repeats in this data set agree poorly, so a single value says little.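 Cells: ReNCell VM human fetal ventral-midbrain neural progenitors, differentiated mitogen-free. Blinded raters compared doublecortin-stained (early neurons) or tyrosine hydroxylase-stained (dopaminergic neurons) images with untreated wells, where 0 means no change. After repeats and both raters were averaged, compounds scoring 2 or above became hits for retesting.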

These compounds were tested on ReNCell VM (assay: dopaminergic neuron differentiation score (TH+ cell fraction vs untreated, manual image score) (score (0 to 3)); higher = more TH+ dopaminergic neuron differentiation). Details: library: Natural; 2 uM; 4 weeks; BDNF 10 ng/ml + GDNF 10 ng/ml.

Dopaminergic neuron differentiation score, inactive:
O=C(O)C1Cc2c([nH]c3ccccc23)C(c2coc3ccccc3c2=O)N1 (stereo unspecified) 0
COc1c2ccoc2nc2c(OC)c(O[C@@H]3O[C@@H](C)[C@H](O)[C@@H](O)[C@H]3O)ccc12 [glycoperine] 0
C=C1C[C@]23CC4[C@@H]5[C@@]6(C)C[C@H](O)C[C@]57C(C2[C@@H](O)[C@H]1[C@@H](O)[C@H]37)N4C6 [hetisine] 0
O=C(NC[C@@H](O)c1ccccc1)c1ccccc1 [(-)-n-benzoyl-2-hydroxy-2-phenylethylamine] 0
CC1(C)CCCC2(C)C1CCC(C)(O)C2CCC(C)(O)C1CO1 (stereo unspecified) 0

Same assay, conditions: library: Prestwick; 2 uM; 4 weeks; BDNF 10 ng/ml + GDNF 10 ng/ml

Dopaminergic neuron differentiation score, inactive:
CN(C)CCN1C(=O)c2ccccc2N(C)c2ccccc21 [Dibenzepine hydrochloride] 0
CN1[C@@H]2CC[C@H]1C[C@@H](OC(=O)C(O)c1ccccc1)C2 (mixture of isomers) [Homatropine hydrobromide (R,S)] 0
Clc1ccc(C(c2ccccc2Cl)C(Cl)Cl)cc1 (stereo unspecified) [Mitotane] 0
Nc1ccn([C@H]2CC[C@@H](CO)O2)c(=O)n1 [Zalcitabine] 0
CC1(C)S[C@@H]2[C@H](NC(=O)[C@H](N)c3ccccc3)C(=O)N2[C@H]1C(=O)O [Ampicillin trihydrate] 0
CCCCC1(COC(=O)CCC(=O)O)C(=O)N(c2ccccc2)N(c2ccccc2)C1=O [Suxibuzone] 0

Some of these compounds in order of formula weight, smallest number first.
Dopaminergic neuron differentiation score, inactive:
Nc1ccn([C@H]2CC[C@@H](CO)O2)c(=O)n1 [Zalcitabine] 0
CN1[C@@H]2CC[C@H]1C[C@@H](OC(=O)C(O)c1ccccc1)C2 (mixture of isomers) [Homatropine hydrobromide (R,S)] 0
Clc1ccc(C(c2ccccc2Cl)C(Cl)Cl)cc1 (stereo unspecified) [Mitotane] 0
